Test results published in patent US20030232742A1 (priority 2000, published 2003).

Experiment: general procedure: Fmoc solid-phase peptide synthesis; H-Pro-2-chlorotritylchloride-resin; DIC/HOBt

Pyridin-3-ylmethoxycarbonyl-Pro-Ala-Gly-Pro-MNA (PAGP; N-3-pyridylmethyloxycarbonyl; C-terminal MNA; printed: Pro-Ala-Gly-Pro-)
final HPLC purity (coupling step): HPLC>95%

Pyridin-3-ylmethoxycarbonyl-Pro-Ala-Gly-Pro-OH
final HPLC purity (whole synthesis, scale of the general procedure 200 mg resin, 0.158): HPLC >95%
